This note sets out measurements from article PMC6797079.

In assay [1] the target is sodium/iodide symporter (NIS), wild type, MYC- or HA-tagged (human) (UniProt Q92911). Nature of the assay: co-IP; SW1736 and HeLa cells co-transfected with NIS-MYC and NIS-HA, lysed; precipitated with mouse anti-MYC and blotted with anti-HA, and the reverse (rabbit anti-HA, blot anti-MYC).
For assay [2] the target is unchanged. Nature of the assay: proximity ligation; Duolink In Situ (Detection Reagents Red) with anti-MYC and anti-HA antibodies on fixed, permeabilised SW1736 and HeLa cells 48 hours after transfection; signal if the two are fewer than 40 nm apart.
Substrate in assay [3]: NIS A525F, cerulean- or citrine-tagged (human) (UniProt Q92911)
Nature of the assay: FRET or BRET; SW1736 and HeLa cells cotransfected with NIS variants conjugated to cerulean or citrine, spinning disk confocal imaging 48 hours post-transfection; corrected FRET (arbitrary units) after subtraction of CFP and YFP cross talk. On the technique in general: In BRET a luciferase serves as donor, and the signal depends on an acceptor being close.

Substrate in assay [4]: T1, NIS Y242A, cerulean- or citrine-tagged (human) (UniProt Q92911)
T1 sequence: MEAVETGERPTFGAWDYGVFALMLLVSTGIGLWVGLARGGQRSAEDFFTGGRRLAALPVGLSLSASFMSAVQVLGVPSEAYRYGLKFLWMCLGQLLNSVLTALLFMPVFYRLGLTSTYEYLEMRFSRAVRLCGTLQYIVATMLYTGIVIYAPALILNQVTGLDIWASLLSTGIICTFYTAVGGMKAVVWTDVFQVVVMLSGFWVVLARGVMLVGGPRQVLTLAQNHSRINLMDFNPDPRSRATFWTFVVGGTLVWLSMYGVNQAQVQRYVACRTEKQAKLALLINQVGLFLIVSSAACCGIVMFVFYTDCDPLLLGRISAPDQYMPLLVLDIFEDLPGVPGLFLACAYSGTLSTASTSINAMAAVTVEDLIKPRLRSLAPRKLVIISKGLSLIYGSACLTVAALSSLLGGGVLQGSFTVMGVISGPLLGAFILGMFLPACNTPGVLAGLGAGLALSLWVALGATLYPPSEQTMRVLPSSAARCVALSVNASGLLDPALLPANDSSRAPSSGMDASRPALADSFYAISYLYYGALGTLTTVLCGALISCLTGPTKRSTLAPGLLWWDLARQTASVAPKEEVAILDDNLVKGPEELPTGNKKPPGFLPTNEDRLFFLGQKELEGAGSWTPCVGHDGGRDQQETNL
The assay is described as above.

Substrate in assay [5]: T2, NIS D237A, cerulean- or citrine-tagged (human) (UniProt Q92911)
T2 sequence: T1 sequence with D237A, A242Y
The assay is described as above.

Substrate in assay [6]: NIS Q471A, cerulean- or citrine-tagged (human) (UniProt Q92911)
Described as above.

Substrate in assay [7]: NIS D237A, MYC- or HA-tagged (human) (UniProt Q92911)
In words: proximity ligation; Duolink In Situ (Detection Reagents Red) with anti-MYC and anti-HA antibodies on fixed, permeabilised SW1736 and HeLa cells 48 hours after transfection; signal if the two are fewer than 40 nm apart.

Changes are numbered by the printed parent chain. Numbers in names are those of the source. No constants are given. Whether binding was seen depends on the method and setting. Binding seen in cells or lysates may run through a third protein. Some entries that bind do so weakly or less than the wild type. Tags and fused reporters may be left off the sequences shown.

B1: sodium/iodide symporter (NIS), wild type, MYC- or HA-tagged (protein, UniProt Q92911 1-643)
chain: T1 sequence with A242Y
On to B1, for which the binding result in assay [1] and in assay [2] was “binds” throughout.

B2: NIS A525F, cerulean- or citrine-tagged (protein, UniProt Q92911 1-643)
chain: T1 sequence with A242Y, A525F
As for B2, the binding result in assay [3], in assay [4] and in assay [5] was “binds” each time.

B3: NIS Q471A, cerulean- or citrine-tagged (protein, UniProt Q92911 1-643)
chain: T1 sequence with A242Y, Q471A
B3: the binding entry in assay [6] is “binds”.

B4: NIS D237A, MYC- or HA-tagged (protein, UniProt Q92911 1-643)
chain: T1 sequence with D237A, A242Y
On to B4, for which the binding result in assay [7] is given as “binds”.
